The results in this text go back to article PMC8774046.

Sequences of proteins named here, by UniProt entry; tags and fusion partners are left off.
UniProt Q9SXA1: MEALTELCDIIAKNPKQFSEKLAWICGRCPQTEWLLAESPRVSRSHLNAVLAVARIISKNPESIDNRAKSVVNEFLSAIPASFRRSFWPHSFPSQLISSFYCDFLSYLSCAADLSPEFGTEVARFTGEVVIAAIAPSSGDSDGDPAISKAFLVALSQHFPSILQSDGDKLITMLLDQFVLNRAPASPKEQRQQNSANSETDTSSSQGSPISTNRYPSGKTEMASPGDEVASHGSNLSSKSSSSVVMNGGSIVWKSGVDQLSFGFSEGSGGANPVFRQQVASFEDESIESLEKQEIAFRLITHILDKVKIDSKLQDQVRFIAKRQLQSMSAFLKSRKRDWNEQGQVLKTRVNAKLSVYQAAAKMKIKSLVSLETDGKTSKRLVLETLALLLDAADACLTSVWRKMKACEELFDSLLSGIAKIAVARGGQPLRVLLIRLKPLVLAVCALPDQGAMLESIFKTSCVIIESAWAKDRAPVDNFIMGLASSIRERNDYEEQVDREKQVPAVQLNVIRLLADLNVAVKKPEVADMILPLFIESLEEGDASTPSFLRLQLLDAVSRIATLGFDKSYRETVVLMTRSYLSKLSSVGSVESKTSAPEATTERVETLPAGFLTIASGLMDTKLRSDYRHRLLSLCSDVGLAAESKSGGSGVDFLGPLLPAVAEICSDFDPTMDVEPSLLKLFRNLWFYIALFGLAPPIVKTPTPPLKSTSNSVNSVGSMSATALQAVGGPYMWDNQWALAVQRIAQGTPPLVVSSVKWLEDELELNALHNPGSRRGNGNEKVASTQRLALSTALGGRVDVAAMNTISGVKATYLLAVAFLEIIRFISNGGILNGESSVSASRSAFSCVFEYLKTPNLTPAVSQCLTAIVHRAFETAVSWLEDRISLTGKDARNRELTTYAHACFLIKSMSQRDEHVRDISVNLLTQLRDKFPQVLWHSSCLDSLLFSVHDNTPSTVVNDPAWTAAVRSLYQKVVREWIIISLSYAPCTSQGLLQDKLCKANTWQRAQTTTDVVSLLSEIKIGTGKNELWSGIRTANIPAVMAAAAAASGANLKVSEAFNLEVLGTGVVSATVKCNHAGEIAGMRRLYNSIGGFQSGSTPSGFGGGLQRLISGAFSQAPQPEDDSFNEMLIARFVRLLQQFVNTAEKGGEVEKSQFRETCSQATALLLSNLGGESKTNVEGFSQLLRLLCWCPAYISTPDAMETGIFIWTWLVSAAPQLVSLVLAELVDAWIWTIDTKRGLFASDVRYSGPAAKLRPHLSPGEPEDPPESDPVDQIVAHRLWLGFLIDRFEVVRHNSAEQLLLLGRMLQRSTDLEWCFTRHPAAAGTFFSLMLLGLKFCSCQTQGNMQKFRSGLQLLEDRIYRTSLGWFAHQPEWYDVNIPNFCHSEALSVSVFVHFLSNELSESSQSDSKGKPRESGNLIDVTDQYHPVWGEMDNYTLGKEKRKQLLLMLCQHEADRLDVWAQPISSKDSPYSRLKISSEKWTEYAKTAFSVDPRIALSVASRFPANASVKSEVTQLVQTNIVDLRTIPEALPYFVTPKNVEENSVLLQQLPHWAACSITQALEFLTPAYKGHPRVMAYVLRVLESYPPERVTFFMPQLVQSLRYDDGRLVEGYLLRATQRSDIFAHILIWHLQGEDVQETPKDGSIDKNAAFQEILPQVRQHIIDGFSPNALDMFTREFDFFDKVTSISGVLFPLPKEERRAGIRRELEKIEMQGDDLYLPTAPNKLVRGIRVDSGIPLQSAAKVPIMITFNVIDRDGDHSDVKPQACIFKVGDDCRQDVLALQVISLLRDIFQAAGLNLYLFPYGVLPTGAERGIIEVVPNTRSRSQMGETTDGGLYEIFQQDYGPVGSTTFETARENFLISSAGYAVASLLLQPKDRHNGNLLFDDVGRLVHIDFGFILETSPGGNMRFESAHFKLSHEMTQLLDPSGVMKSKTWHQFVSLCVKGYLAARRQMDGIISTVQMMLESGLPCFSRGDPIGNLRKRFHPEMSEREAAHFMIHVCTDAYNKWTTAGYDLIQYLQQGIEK

Read-outs that look alike come from different tables or passages of the source. Results are given in words; binding and its absence hold for the method and conditions named. In cells and extracts the contact can be indirect. Some binding calls cover weakened binding; strength is not graded here.

Common to all, as to assay: co-IP; leaf tissue of Arabidopsis transgenic lines; proteins fused to mCITRINE immunoprecipitated with Miltenyi µMacs anti-GFP; immunoblot with anti-PI4Kα1, anti-NPGR2 and anti-GFP
The target of test [1] is T1, NPGR2–mCITRINE (Arabidopsis thaliana) (UniProt Q66GN3).
T1 sequence: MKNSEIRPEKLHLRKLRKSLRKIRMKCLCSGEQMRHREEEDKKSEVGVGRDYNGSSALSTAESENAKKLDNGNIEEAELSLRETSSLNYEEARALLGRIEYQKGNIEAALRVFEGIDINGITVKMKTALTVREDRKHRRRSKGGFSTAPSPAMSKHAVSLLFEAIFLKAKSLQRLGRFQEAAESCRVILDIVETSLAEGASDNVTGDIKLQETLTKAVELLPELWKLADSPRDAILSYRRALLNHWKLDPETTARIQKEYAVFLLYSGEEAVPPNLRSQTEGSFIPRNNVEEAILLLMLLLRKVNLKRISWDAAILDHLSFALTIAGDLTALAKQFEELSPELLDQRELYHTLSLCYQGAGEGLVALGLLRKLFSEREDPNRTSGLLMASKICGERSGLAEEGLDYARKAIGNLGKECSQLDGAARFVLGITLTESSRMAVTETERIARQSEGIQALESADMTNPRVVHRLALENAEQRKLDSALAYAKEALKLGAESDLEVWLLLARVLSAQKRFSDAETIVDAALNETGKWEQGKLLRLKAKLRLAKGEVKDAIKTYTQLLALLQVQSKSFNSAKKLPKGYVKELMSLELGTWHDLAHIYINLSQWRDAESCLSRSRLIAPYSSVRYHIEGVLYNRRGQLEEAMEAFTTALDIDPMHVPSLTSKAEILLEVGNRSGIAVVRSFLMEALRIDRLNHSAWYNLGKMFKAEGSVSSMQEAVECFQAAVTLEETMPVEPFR

Test [2] concerns the target T2, Lti6b–mCITRINE (UniProt Q9ZNS6).
T2 sequence: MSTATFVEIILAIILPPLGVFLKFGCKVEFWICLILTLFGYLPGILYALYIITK

In test [3] the target is T2, Lti6b–mCITRINE. This is another data set of the same source.

Take “PI4Kα1 (endogenous, native) (from UniProt Q9SXA1 1-2028) (enzyme)”: the figures for the binding result (in test [1]; in the test with Lti6b–mCITRINE [2]) were “binds” and “no binding”, respectively.

B1: NPGR2 (endogenous) (protein, UniProt Q66GN3 1-739)
chain: MKNSEIRPEKLHLRKLRKSLRKIRMKCLCSGEQMRHREEEDKKSEVGVGRDYNGSSALSTAESENAKKLDNGNIEEAELSLRETSSLNYEEARALLGRIEYQKGNIEAALRVFEGIDINGITVKMKTALTVREDRKHRRRSKGGFSTAPSPAMSKHAVSLLFEAIFLKAKSLQRLGRFQEAAESCRVILDIVETSLAEGASDNVTGDIKLQETLTKAVELLPELWKLADSPRDAILSYRRALLNHWKLDPETTARIQKEYAVFLLYSGEEAVPPNLRSQTEGSFIPRNNVEEAILLLMLLLRKVNLKRISWDAAILDHLSFALTIAGDLTALAKQFEELSPELLDQRELYHTLSLCYQGAGEGLVALGLLRKLFSEREDPNRTSGLLMASKICGERSGLAEEGLDYARKAIGNLGKECSQLDGAARFVLGITLTESSRMAVTETERIARQSEGIQALESADMTNPRVVHRLALENAEQRKLDSALAYAKEALKLGAESDLEVWLLLARVLSAQKRFSDAETIVDAALNETGKWEQGKLLRLKAKLRLAKGEVKDAIKTYTQLLALLQVQSKSFNSAKKLPKGYVKELMSLELGTWHDLAHIYINLSQWRDAESCLSRSRLIAPYSSVRYHIEGVLYNRRGQLEEAMEAFTTALDIDPMHVPSLTSKAEILLEVGNRSGIAVVRSFLMEALRIDRLNHSAWYNLGKMFKAEGSVSSMQEAVECFQAAVTLEETMPVEPFR
Turning to B1, the binding result with Lti6b–mCITRINE [3] is recorded as “no binding”.
